From the supplement of paper PMC10849652
The other results are listed elsewhere or left out.

The chains behind the UniProt entries cited, without tags or fusion partners. Where a name states a change or a piece, a line headed by the entry shows the natural chain unless it says otherwise.
UniProt Q9GZY4: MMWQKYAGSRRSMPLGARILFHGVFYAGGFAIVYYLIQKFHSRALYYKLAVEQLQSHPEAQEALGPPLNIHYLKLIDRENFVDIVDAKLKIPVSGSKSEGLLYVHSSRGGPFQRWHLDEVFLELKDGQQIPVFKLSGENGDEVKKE
UniProt P51797: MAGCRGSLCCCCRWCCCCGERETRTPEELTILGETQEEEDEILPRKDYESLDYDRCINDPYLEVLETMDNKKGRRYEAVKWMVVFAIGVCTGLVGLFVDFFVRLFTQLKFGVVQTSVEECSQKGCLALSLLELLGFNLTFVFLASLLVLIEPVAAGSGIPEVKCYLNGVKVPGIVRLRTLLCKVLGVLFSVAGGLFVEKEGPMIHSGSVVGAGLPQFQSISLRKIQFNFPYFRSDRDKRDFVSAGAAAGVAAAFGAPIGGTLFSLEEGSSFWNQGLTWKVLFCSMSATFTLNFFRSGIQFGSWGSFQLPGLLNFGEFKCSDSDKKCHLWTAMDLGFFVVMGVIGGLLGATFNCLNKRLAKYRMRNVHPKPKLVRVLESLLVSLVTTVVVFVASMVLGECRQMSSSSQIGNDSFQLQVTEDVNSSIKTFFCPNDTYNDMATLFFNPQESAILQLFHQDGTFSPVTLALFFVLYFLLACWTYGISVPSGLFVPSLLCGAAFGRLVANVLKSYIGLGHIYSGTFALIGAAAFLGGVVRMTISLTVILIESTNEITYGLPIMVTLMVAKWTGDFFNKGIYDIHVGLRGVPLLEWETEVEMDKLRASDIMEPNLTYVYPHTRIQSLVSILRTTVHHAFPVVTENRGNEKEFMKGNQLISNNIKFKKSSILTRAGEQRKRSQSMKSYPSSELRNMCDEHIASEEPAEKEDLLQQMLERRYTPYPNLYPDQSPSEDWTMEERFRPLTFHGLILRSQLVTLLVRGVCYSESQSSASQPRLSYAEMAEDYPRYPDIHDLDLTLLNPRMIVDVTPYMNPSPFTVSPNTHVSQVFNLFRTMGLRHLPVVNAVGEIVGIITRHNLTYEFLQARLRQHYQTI
UniProt Q9Y3Y2: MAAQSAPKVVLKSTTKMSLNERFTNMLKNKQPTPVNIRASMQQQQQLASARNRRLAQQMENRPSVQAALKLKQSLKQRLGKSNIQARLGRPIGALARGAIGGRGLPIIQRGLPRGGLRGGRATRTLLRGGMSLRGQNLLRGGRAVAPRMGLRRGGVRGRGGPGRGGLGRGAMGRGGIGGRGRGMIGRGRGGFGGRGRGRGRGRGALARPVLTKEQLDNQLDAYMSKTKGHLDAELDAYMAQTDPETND
UniProt Q9NRB3: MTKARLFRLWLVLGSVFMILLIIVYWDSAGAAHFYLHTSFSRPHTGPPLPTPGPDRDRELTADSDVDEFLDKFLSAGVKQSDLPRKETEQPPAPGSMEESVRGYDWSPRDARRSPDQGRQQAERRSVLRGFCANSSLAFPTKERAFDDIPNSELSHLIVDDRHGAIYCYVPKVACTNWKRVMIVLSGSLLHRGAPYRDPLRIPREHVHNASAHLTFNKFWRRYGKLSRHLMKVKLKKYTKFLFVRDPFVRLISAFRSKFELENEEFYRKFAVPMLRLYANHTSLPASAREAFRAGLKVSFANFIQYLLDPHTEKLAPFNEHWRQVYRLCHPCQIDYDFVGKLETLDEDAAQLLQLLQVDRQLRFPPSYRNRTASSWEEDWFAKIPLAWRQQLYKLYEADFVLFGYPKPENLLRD
UniProt Q9Y4C5: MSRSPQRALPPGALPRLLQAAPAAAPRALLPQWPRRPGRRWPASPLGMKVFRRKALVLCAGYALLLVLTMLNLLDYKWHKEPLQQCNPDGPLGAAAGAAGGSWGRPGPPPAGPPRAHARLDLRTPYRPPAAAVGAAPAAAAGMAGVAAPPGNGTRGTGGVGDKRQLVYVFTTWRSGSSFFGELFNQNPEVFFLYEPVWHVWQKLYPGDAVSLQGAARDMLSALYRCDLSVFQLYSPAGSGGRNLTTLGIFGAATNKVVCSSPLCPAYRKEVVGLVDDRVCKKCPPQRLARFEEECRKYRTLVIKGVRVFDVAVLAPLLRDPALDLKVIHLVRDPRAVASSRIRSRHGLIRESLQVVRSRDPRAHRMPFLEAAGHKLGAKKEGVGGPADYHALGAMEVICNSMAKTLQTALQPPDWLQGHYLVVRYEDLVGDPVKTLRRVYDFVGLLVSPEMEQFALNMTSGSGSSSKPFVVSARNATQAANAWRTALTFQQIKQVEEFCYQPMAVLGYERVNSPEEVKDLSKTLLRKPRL
UniProt Q8IZ52: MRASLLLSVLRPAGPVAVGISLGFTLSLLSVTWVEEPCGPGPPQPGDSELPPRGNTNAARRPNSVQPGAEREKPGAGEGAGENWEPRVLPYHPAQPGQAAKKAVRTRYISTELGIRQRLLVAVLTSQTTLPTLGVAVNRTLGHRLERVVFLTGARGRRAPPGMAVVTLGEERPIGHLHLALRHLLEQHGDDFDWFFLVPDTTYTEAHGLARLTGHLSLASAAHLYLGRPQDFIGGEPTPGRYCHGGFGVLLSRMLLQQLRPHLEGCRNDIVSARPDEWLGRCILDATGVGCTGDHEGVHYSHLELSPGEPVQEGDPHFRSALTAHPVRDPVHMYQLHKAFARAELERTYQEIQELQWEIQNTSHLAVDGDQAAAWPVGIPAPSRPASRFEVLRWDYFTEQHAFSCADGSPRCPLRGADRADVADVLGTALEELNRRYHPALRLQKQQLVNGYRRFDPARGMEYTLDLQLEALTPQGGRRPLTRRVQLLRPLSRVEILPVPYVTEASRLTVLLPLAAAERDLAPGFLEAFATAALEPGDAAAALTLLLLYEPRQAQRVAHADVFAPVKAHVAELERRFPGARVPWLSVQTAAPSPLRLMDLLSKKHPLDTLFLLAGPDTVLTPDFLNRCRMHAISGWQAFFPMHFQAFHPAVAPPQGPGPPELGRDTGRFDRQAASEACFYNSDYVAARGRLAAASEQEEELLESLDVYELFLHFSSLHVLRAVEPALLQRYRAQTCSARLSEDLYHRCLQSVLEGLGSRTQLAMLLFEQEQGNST
UniProt Q9ULM6, whole entry, looked up: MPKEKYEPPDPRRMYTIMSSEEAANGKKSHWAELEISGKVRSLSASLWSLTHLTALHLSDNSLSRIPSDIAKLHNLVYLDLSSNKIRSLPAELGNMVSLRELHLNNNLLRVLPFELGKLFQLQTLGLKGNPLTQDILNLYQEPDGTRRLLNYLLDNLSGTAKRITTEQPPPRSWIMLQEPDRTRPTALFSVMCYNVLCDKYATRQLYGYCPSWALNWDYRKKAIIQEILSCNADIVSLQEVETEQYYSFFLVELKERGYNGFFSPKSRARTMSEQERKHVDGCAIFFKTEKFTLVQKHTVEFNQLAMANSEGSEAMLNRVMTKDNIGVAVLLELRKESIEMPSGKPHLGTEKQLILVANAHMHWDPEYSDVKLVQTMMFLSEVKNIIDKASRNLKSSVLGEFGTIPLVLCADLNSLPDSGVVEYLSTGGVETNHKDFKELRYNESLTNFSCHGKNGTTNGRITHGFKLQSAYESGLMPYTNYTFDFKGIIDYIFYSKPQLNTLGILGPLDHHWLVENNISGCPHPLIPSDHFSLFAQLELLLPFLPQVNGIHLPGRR
UniProt Q96MX0: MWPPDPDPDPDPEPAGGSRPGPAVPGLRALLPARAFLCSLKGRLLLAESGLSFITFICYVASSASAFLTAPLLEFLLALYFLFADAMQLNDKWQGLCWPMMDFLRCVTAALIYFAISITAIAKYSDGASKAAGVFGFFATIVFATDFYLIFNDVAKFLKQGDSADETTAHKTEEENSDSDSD
UniProt Q8WWK9: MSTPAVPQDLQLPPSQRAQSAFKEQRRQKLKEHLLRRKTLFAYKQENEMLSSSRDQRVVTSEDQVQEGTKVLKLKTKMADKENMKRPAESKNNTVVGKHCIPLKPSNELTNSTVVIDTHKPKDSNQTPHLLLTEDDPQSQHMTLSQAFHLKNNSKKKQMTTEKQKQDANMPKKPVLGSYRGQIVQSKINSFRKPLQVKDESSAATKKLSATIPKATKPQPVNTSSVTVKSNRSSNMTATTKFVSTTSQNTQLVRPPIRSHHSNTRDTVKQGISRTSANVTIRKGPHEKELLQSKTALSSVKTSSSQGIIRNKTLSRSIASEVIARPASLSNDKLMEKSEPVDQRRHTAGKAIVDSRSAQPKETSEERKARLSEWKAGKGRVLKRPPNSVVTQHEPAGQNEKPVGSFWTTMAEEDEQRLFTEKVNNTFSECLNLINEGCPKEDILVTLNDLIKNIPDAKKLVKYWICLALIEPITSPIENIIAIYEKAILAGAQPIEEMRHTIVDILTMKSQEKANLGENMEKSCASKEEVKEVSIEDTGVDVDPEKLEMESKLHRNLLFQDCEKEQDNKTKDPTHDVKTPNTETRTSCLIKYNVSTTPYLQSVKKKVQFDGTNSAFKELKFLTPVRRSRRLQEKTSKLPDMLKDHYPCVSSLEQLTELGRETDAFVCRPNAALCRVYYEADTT
UniProt O76031, whole entry, looked up: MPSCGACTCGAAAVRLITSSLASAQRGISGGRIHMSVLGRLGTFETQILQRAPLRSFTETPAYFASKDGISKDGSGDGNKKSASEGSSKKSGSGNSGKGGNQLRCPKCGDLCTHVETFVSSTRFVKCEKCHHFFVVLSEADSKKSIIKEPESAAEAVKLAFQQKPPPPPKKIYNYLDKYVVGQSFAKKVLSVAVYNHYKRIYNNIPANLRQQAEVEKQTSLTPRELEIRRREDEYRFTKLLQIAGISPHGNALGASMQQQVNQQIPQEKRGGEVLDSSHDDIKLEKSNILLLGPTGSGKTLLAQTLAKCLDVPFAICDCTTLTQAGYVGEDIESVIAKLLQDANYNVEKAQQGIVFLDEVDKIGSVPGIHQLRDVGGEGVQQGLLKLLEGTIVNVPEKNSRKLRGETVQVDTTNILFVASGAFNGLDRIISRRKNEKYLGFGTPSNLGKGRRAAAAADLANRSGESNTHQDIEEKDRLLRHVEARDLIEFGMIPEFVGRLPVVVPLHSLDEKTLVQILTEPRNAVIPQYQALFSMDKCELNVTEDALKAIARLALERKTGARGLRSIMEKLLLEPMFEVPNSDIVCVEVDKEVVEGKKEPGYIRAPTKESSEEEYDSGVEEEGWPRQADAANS
UniProt Q9NYJ1, whole entry, looked up: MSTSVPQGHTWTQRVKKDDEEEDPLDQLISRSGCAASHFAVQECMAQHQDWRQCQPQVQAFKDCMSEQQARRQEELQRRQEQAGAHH
UniProt Q9ULV3: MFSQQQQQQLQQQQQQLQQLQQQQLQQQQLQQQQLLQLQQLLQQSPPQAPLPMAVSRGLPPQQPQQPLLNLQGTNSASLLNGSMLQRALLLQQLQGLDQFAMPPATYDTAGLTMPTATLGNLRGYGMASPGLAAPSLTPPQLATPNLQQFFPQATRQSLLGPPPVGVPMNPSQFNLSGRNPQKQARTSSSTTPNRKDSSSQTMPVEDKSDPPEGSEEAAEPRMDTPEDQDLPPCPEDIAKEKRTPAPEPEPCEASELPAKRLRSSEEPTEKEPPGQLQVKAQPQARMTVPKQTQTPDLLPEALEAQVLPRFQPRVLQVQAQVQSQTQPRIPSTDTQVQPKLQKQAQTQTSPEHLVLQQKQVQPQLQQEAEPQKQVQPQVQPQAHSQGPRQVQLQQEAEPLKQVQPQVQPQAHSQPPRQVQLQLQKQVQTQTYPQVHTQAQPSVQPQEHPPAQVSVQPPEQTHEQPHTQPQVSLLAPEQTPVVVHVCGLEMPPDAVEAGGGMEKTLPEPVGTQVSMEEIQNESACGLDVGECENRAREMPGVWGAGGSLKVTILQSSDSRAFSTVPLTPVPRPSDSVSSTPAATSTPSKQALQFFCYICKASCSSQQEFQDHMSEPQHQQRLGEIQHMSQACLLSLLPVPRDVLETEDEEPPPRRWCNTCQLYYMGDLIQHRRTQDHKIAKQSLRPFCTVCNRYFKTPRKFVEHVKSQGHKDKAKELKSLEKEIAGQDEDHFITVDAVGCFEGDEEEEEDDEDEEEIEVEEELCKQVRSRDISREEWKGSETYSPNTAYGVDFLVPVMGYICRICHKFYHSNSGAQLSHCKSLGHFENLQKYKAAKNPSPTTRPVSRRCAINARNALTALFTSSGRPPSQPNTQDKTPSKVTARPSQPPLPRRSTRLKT
UniProt P12277: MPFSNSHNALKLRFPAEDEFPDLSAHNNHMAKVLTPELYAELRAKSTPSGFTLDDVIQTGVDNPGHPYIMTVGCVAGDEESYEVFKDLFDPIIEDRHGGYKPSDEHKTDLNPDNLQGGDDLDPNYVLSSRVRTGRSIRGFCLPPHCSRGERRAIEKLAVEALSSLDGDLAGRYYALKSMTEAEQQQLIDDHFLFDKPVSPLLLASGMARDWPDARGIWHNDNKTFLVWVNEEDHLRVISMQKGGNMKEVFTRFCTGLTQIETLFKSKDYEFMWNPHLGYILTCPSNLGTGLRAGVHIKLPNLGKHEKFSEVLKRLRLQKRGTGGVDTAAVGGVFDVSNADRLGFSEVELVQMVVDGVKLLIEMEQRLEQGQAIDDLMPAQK
UniProt Q9Y3D0: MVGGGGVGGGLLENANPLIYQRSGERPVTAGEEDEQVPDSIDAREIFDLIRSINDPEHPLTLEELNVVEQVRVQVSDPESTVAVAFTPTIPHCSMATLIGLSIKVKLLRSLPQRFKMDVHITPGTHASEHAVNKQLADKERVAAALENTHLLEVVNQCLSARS

Legend:
Assay in all cases: log2 fold change, soluble protein after heating vs DMSO (PISA); higher = thermal stabilisation; K562 cells, 10 uM, 30 min; active = over 0.2 and 3.5 SD of the protein, either way, in both replicates (recomputed)
saracatinib = compound: CN1CCN(CCOc2cc(OC3CCOCC3)c3c(Nc4c(Cl)ccc5c4OCO5)ncnc3c2)CC1 [saracatinib]
Summary of the method: (§1)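 Aliquots of K562 cells (2×10^6 cells/mL) treated with 10 μM compound for 30 min were heated for 3 min over 48°C-58°C. After pooling and extraction in PBS with 0.5% NP-40 at 4°C, soluble protein from a 21,000xg, 90 min spin was quantified by TMTpro 16plex LC-MS/MS with channel sums equalised. Thermal stability is expressed against control samples, from duplicates, as a log2 fold change.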

sotrastaurin = compound: CN1CCN(c2nc(C3=C(c4c[nH]c5ccccc45)C(=O)NC3=O)c3ccccc3n2)CC1 [sotrastaurin]
Summary of the method: as §1

alvocidib = compound: CN1CC[C@H](c2c(O)cc(O)c3c(=O)cc(-c4ccccc4Cl)oc23)[C@H](O)C1 [alvocidib]
Summary of the method: as §1

Tubastatin A = compound: CN1CCc2c(c3ccccc3n2Cc2ccc(C(=O)NO)cc2)C1 [Tubastatin A]
Summary of the method: as §1

[1] = compound: CNC(=O)C1=CC=CC=C1NC2=NC(=NC=C2Cl)NC3=C(C=C(C=C3)N4CCOCC4)OC
Summary of the method: as §1

defactinib = compound: CNC(=O)c1ccc(Nc2ncc(C(F)(F)F)c(NCc3nccnc3N(C)S(C)(=O)=O)n2)cc1 [defactinib]
Summary of the method: as §1

rucaparib = compound: CNCc1ccc(-c2[nH]c3cc(F)cc4c3c2CCNC4=O)cc1 [rucaparib]
Summary of the method: as §1

[2] = compound: CNc1nc(-c2ccc3c(N)n[nH]c3c2)cc(N2C[C@@H](C(=O)NC3CCCCC3)CC[C@H]2C)n1
Summary of the method: as §1

encorafenib = compound: COC(=O)N[C@@H](C)CNc1nccc(-c2cn(C(C)C)nc2-c2cc(Cl)cc(NS(C)(=O)=O)c2F)n1 [encorafenib]
Summary of the method: as §1

[3] = compound: COC(=O)[C@H](CCSC)NC(=O)C1=C(C=C(C=C1)NC[C@H](CS)N)C2=CC=CC=C2
Summary of the method: as §1

Measured: log2 fold change

CNOT3 (UniProt O75175)
inactive: saracatinib -0.003 | sotrastaurin -0.044 | alvocidib -0.005 | Tubastatin A -0.001 | [1] 0.049 | defactinib -0.046 | rucaparib 0.091 | [2] 0.02 | encorafenib 0.174 | [3] -0.017

CNOT6L (UniProt Q96LI5)
inactive: saracatinib -0.033 | sotrastaurin -0.136 | alvocidib 0.03 | Tubastatin A 0.073 | [1] 0.009 | defactinib -0.05 | rucaparib -0.069 | [2] -0.049 | encorafenib -0.084 | [3] 0.027

CHMP6 (UniProt Q96FZ7)
inactive: saracatinib 0.068 | sotrastaurin -0.015 | alvocidib -0.039 | Tubastatin A -0.003 | [1] 0.023 | defactinib 0.005 | rucaparib -0.069 | [2] -0.023 | encorafenib -0.031 | [3] 0.027

CLTA isoform 2 (UniProt P09496)
inactive: saracatinib 0.141 | sotrastaurin 0.037 | alvocidib 0.123 | Tubastatin A 0.024 | [1] 0.026 | defactinib 0.101 | rucaparib -0.14 | [2] 0.014 | encorafenib 0.017 | [3] 0.042

COA1 (UniProt Q9GZY4)
inactive: saracatinib 0.065 | sotrastaurin 0.025 | alvocidib 0.012 | Tubastatin A -0.013 | [1] -0.028 | defactinib 0 | rucaparib -0.03 | [2] -0.044 | encorafenib -0.029 | [3] 0.01

CKAP4 (UniProt Q07065)
inactive: saracatinib -0.06 | sotrastaurin -0.036 | alvocidib -0.007 | Tubastatin A 0.015 | defactinib -0.054 | rucaparib -0.04 | [2] 0.055 | encorafenib 0.099 | [3] -0.018

CLCN6 isoform 5 (UniProt P51797)
inactive: saracatinib -0.098 | sotrastaurin 0.166 | alvocidib 0.141 | [1] 0.086 | defactinib 0.011 | rucaparib 0.1 | [2] -0.033 | encorafenib 0.094 | [3] -0.179

CNBP (UniProt P62633)
inactive: saracatinib -0.083 | sotrastaurin 0.15 | alvocidib 0.053 | [1] -0.013 | rucaparib 0.124 | [2] -0.023 | encorafenib -0.065

CNOT4 isoform 6 (UniProt O95628)
inactive: saracatinib 0 | sotrastaurin 0.003 | Tubastatin A -0.003 | [1] -0.014 | defactinib -0.03 | rucaparib -0.044 | [2] -0.07 | encorafenib -0.023 | [3] -0.015

CHTOP isoform 3 (UniProt Q9Y3Y2)
inactive: saracatinib -0.379 | sotrastaurin -0.27 | alvocidib 0.091 | Tubastatin A 0.044 | [1] 0.081 | defactinib 0.424 | [2] -0.356 | [3] 0.021

COG1 (UniProt Q8WTW3)
inactive: saracatinib -0.208 | sotrastaurin -0.015 | alvocidib 0.167 | Tubastatin A 0.251 | [2] 0.099

CMTR1 (UniProt Q8N1G2)
inactive: saracatinib 0.009 | sotrastaurin 0.018 | Tubastatin A -0.052 | [1] 0.045 | defactinib -0.026 | rucaparib 0.003 | [2] 0.099 | encorafenib 0.06 | [3] -0.091

CHST12 (UniProt Q9NRB3)
inactive: saracatinib -0.348 | sotrastaurin 0.076 | alvocidib 0.046 | Tubastatin A -0.015 | [1] -0.078 | defactinib -0.091 | [2] -0.084 | [3] -0.016

CHMP7 (UniProt Q8WUX9)
inactive: saracatinib -0.078 | sotrastaurin -0.091 | alvocidib -0.015 | Tubastatin A -0.076 | [1] 0.01 | rucaparib -0.147 | [2] 0.04 | encorafenib 0.078

COG4 (UniProt Q9H9E3)
inactive: saracatinib -0.201 | sotrastaurin -0.053 | alvocidib 0.143 | Tubastatin A 0.136 | [1] -0.096 | defactinib 0.183 | [2] -0.064 | [3] 0.19

CNPY4 (UniProt Q8N129)
inactive: saracatinib 0.035 | sotrastaurin -0.02 | alvocidib 0.084 | Tubastatin A 0.046 | [1] 0.001 | defactinib -0.028 | [2] -0.073 | [3] -0.092

CHST2 (UniProt Q9Y4C5)
inactive: saracatinib -0.073 | sotrastaurin 0.044 | alvocidib -0.007 | Tubastatin A 0.048 | [1] 0.101 | [2] 0.009

CHPF (UniProt Q8IZ52)
inactive: saracatinib -0.054 | sotrastaurin -0.002 | alvocidib -0.038 | Tubastatin A 0.14 | defactinib 0.208 | rucaparib 0.03 | [2] -0.094 | encorafenib 0.106 | [3] 0.019

CNN3 (UniProt Q15417)
inactive: saracatinib 0.063 | sotrastaurin -0.122 | Tubastatin A 0.02 | [1] 0.036 | defactinib -0.13 | rucaparib 0.048 | [2] 0.008 | encorafenib 0.009 | [3] 0

CNOT6 (UniProt Q9ULM6)
inactive: saracatinib -0.003 | sotrastaurin -0.113 | alvocidib -0.111 | [1] 0.176 | defactinib -0.037 | rucaparib -0.006 | [2] 0.088 | encorafenib 0.113 | [3] -0.037

CHPF2 (UniProt Q9P2E5)
inactive: saracatinib -0.247 | sotrastaurin -0.009 | alvocidib 0.198 | Tubastatin A 0.185 | [1] 0.028 | defactinib 0.112 | [2] -0.036 | [3] -0.196

CLCN2 (UniProt P51788)
inactive: saracatinib -0.006 | sotrastaurin -0.024 | alvocidib -0.009 | [1] -0.091 | defactinib -0.001 | [2] -0.083 | [3] 0.017

CMTM3 (UniProt Q96MX0)
inactive: saracatinib -0.006 | sotrastaurin -0.01 | Tubastatin A -0.012 | [1] -0.019 | defactinib -0.096 | rucaparib 0.129 | [2] -0.075 | encorafenib -0.072 | [3] 0.05

CLCN3 (UniProt P51790)
inactive: saracatinib 0 | sotrastaurin 0.021 | Tubastatin A -0.14 | [1] 0.019 | defactinib 0.004 | rucaparib -0.055 | [2] -0.057 | encorafenib 0.021 | [3] -0.06

CKAP2 (UniProt Q8WWK9)
inactive: saracatinib -0.084 | sotrastaurin -0.036 | alvocidib 0.127 | Tubastatin A 0.094 | [1] 0.05 | [2] 0.032

CLPX (UniProt O76031)
inactive: saracatinib 0.014 | sotrastaurin 0.014 | Tubastatin A 0.025 | [1] -0.016 | defactinib -0.027 | rucaparib 0.034 | [2] -0.038 | encorafenib -0.013 | [3] -0.01

COA4 isoform 2 (UniProt Q9NYJ1)
inactive: saracatinib 0.057 | sotrastaurin 0.071 | alvocidib 0.234 | [1] -0.006 | rucaparib 0.065 | [2] -0.168 | encorafenib -0.124

CIZ1 (UniProt Q9ULV3)
inactive: saracatinib 0.046 | sotrastaurin -0.075 | Tubastatin A 0.102 | [1] -0.11 | defactinib -0.117 | rucaparib 0.027 | [2] -0.109 | encorafenib -0.038 | [3] -0.001

CKB (UniProt P12277)
inactive: saracatinib -0.041 | sotrastaurin 0.019 | Tubastatin A -0.004 | [1] -0.016 | defactinib -0.006 | rucaparib -0.059 | [2] 0.043 | encorafenib 0.015 | [3] -0.011

Two successive entries out of the list so far:
CLCN2 (UniProt P51788)
inactive: saracatinib -0.006 | sotrastaurin -0.024 | alvocidib -0.009 | [1] -0.091 | defactinib -0.001 | [2] -0.083 | [3] 0.017

CMTM3 (UniProt Q96MX0)
inactive: saracatinib -0.006 | sotrastaurin -0.01 | Tubastatin A -0.012 | [1] -0.019 | defactinib -0.096 | rucaparib 0.129 | [2] -0.075 | encorafenib -0.072 | [3] 0.05

Next results:

CIAO2B (UniProt Q9Y3D0)
inactive: saracatinib -0.063 | sotrastaurin -0.075 | alvocidib 0.144 | [1] 0.024 | rucaparib -0.007 | [2] -0.186 | encorafenib 0.059
